Laboratory results reported in patent publication US10829466B2, “Stilbene derivative and preparation method thereof” (BEIJING INSTITUTE OF TECHNOLOGY, priority 2015, dated 2020).
Some entries share one result that the patent states for a list of compounds.

Tested on: HEK293
Experiment: In vitro cytotoxicity experiment (MTT, cell survival)
Format: cell-based
Settings: HEK293, 24 h, at all three doses, low, medium and high (100 μM; 500 μM; 1000 μM)
Experimental: Example 35: In Vitro Cytotoxicity Experiment the Experimental Cell Line is HEK293
Cells are cultured in a 96-well plate at a cell concentration of 5000/well. After 24 hours of cell culture, the drug treatment is performed and the experiment is carried out on two groups: the control group is added with DMSO with the same concentration as that for the experimental group; in the experimental group, each compound is tested at three doses of low, medium and high doses (100 μM; 500 μM; 1000 μM), and five parallels are tested at each dose; in the blank group, a complete medium is added with a compound to be tested with the same concentration as that for the experimental group. Constant temperature incubation is carried out for 24 h in a CO2 incubator, MTT with a final concentration of 0.5 mg/mL is then added; 4 hours later, 200 μL of DMSO solution is added, and the absorbance is measured at 490 nm. The cell survival is calculated according to the absorbance; Survival %=(Average concentration−Blank concentration)/(Average control concentration−Blank concentration)*100%.
Reference is made to FIG. 3 which illustrates an in vitro cytotoxicity test chart of a novel stilbene derivative according to an example of embodiments of the present invention.

| SMILES | cell survival rates |
| --- | --- |
| O=C(Nc1ccc(/C=C/c2ccc3c(c2)OCO3)cc1)C1CC1 [WS-74, E-4-cyclopropylcarboxamino-3′,4′-methylenedioxy-stilbene] | exceeded 80% |
| CC(=O)Nc1ccc(/C=C/c2ccc3c(c2)OCO3)cc1 [WS-6, E-4-acetylamino-3′,4′-methylenedioxy-stilbene] | exceeded 80% |
| O=C(Nc1ccc(/C=C/c2ccc3c(c2)OCO3)cc1)c1ccccc1 [WS-70, E-4-benzoylamino-3′,4′-methylenedioxy-stilbene] | exceeded 80% |
